Experimental data reported in publication PMC7324939.
Results are given in words; binding and its absence hold for the method and conditions named. A result given as binding can be weak or reduced; the word gives no strength. For some assays here: Binding seen in cells or lysates may run through a third protein. For some assays here: Where a sequence is shown, tags or fusion partners need not be part of it.

How the values were obtained:
[1] = biological target: IbBT4 (sweetpotato BTB-TAZ domain protein), pBD-IbBT4 bait (sweetpotato (Ipomoea batatas (L.) Lam.)); experiment: two-hybrid; pBD-IbBT4 bait and pAD-BEE2 prey in Y2H Gold yeast; growth and blue colour on SD/-Trp/-His/-Leu/-Ade/X-a-Gal plates, 30°C, 5-8 days
[2] = biological target: IbBT4 in pSPYNE-35S (BiFC fusion with the N-terminal part of YFP) (sweetpotato (Ipomoea batatas (L.) Lam.)); experiment: split reporter; BiFC: IbBT4 in pSPYNE-35S and BEE2 in pSPYCE-35S, agroinfiltrated N. benthamiana leaves, YFP signal by confocal microscopy after 2 days

binding [1] | binding [2] | Binder
binds | – | AtBEE2 (BR-ENHANCED EXPRESSION 2 of Arabidopsis), pAD prey (protein, UniProt Q93VJ4 1-304) MDLSVLDRLKWLQQQQMVSPEFLQILGSDGREELKRVESYLGNNNDELQSFRHFPEFGPDYDTTDGCISRTSSFHMEPVKNNGHSRAITLQNKRKPEGKTEKREKKKIKAEDETEPSMKGKSNMSNTETSSEIQKPDYIHVRARRGEATDRHSLAERARREKISKKMKCLQDIVPGCNKVTGKAGMLDEIINYVQSLQQQVEFLSMKLSVINPELECHIDDLSAKQFQAYFTGPPEGDSKQSIMADFRSFPLHQQGSLDYSVINSDHTTSLGAKDHTSSSWETHSQCLYNSLRTDSVSNFFSLK
– | binds | AtBEE2 in pSPYCE-35S (BiFC fusion with the C-terminal part of YFP) (protein, UniProt Q93VJ4 1-304) MDLSVLDRLKWLQQQQMVSPEFLQILGSDGREELKRVESYLGNNNDELQSFRHFPEFGPDYDTTDGCISRTSSFHMEPVKNNGHSRAITLQNKRKPEGKTEKREKKKIKAEDETEPSMKGKSNMSNTETSSEIQKPDYIHVRARRGEATDRHSLAERARREKISKKMKCLQDIVPGCNKVTGKAGMLDEIINYVQSLQQQVEFLSMKLSVINPELECHIDDLSAKQFQAYFTGPPEGDSKQSIMADFRSFPLHQQGSLDYSVINSDHTTSLGAKDHTSSSWETHSQCLYNSLRTDSVSNFFSLK
